Patent US6248718A, “Lesion-directed dry dosage forms of antibacterial agents for the treatment of acute mucosal infections of the oral cavity” (priority 1999, dated 2001)
At least one read-out could not be matched to a standard name with certainty.

Assay: Concentrations of penicillin G potassium in saliva after oral ingestion (Example VIII)
Assay type: in vivo, human
Conditions: oral ingestion of 250 or 500 mg, 1:20 dilution
Procedure: Eight healthy adults, four men and four women, volunteered for this study. Two men and two women were given 500 mg each, and two men and two women were given 250 mg of USP grade penicillin G potassium powder each by mouth, respectively. These two doses were chosen for the study because they have been used as the standard adult oral doses for systemic treatment of human bacterial infections.
In this study, the drug powder was suspended in one teaspoonful of water and swallowed by the test subjects two hours after breakfast, followed by drinking an 8 Oz. glass of water. The test subjects refrained from drinking or eating for the next three hours. Six samples of saliva were collected from each subject at 30-minute intervals in succession in the next three hours. An aliquot of 0.2 ml from each saliva sample was transferred to 3.8 ml of nutrient broth. The mixture of the latter was forced to pass a bacterial filter. Two (2) ml of the bacteria-free filtrate was pipetted out into a sterile test tube and inoculated with 0.1 ml of a 1:1,000 dilution of a 12 hours broth culture of Staphylococcus aureus ATCC 29213 and incubated at 37° C. for 18 hours. A series of test tubes containing known concentrations, from 6.2 mcg/ml to 0.16 mcg/ml, of penicillin G potassium in 2 ml of nutrient broth was also inoculated with the same broth culture as standards. […]

SMILES: CC1(C)S[C@@H]2[C@H](NC(=O)Cc3ccccc3)C(=O)N2[C@H]1C(=O)O [penicillin]
- penicillin concentration in saliva-broth filtrate: below 0.75 mcg/ml
